The values that follow come from PMC11024252.

Assay [1] has as its target T1, NFATc1 (human (endogenous in IVD cells)) (UniProt O95644).
T1 sequence: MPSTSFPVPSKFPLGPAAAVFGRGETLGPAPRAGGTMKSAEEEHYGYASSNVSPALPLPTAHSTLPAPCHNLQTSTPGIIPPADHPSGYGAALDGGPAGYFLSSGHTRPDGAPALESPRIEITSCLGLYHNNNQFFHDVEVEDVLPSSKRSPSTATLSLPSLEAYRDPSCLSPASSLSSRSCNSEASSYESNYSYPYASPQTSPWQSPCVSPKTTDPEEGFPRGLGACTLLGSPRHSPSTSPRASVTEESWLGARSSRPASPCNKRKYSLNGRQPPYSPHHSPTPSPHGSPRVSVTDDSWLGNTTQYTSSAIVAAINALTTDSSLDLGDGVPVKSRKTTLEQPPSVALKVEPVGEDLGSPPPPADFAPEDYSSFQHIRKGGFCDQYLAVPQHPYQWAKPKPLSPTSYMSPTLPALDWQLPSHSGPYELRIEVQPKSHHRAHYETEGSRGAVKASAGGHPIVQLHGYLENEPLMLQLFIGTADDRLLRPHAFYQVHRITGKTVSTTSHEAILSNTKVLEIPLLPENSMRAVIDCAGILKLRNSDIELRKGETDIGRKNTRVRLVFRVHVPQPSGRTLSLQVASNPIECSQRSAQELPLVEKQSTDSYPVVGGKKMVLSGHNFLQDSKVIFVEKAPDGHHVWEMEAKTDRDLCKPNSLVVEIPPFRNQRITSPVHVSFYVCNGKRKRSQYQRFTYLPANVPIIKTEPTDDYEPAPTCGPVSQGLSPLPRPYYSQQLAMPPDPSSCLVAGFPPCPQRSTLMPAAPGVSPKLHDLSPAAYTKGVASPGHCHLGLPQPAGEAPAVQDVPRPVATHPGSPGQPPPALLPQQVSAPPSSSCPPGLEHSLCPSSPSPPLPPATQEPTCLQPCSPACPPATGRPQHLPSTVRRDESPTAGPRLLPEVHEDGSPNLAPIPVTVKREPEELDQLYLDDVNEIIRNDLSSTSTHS
As to the kind of experiment: proximity ligation; in situ PLA (Duolink In Situ Orange, Mouse/Rabbit) on IVD cells fixed in 100% methanol; primary antibodies anti-P2X7R (#P8232) with anti-NFATc1 (# sc-7294) or anti-lamin A/C (# sc-376248); endogenous proteins; 100 cells or nuclei counted per sample.

Assay [2] addresses T1, NFATc1 (human (endogenous in IVD cells)). As to the kind of experiment: co-IP; IVD cells from four patients of the same grade of degeneration pooled, lysed in RIPA buffer (50 mM Tris-HCl pH 7.8, 1% NP-40, 150 mM NaCl, 0.5% SDC, 0.1% SDS); 1 mg lysate with 10 ug anti-NFATc1 (# sc-7294) 12 h at 4°C, Protein A + G magnetic beads; blot with anti-NFATc1 and anti-P2X7R; normal mouse IgG as negative control.

Results are given in words; binding and its absence hold for the method and conditions named. In cells and extracts the contact can be indirect. Some results given as binding are weak or reduced against the parent protein; the word gives no strength.

B1: P2X7 receptor (receptor, UniProt Q99572 1-595)
chain: MPACCSCSDVFQYETNKVTRIQSMNYGTIKWFFHVIIFSYVCFALVSDKLYQRKEPVISSVHTKVKGIAEVKEEIVENGVKKLVHSVFDTADYTFPLQGNSFFVMTNFLKTEGQEQRLCPEYPTRRTLCSSDRGCKKGWMDPQSKGIQTGRCVVYEGNQKTCEVSAWCPIEAVEEAPRPALLNSAENFTVLIKNNIDFPGHNYTTRNILPGLNITCTFHKTQNPQCPIFRLGDIFRETGDNFSDVAIQGGIMGIEIYWDCNLDRWFHHCRPKYSFRRLDDKTTNVSLYPGYNFRYAKYYKENNVEKRTLIKVFGIRFDILVFGTGGKFDIIQLVVYIGSTLSYFGLAAVFIDFLIDTYSSNCCRSHIYPWCKCCQPCVVNEYYYRKKCESIVEPKPTLKYVSFVDESHIRMVNQQLLGRSLQDVKGQEVPRPAMDFTDLSRLPLALHDTPPIPGQPEEIQLLRKEATPRSRDSPVWCQCGSCLPSQLPESHRCLEELCCRKKPGACITTSELFRKLVLSRHVLQFLLLYQEPLLALDVDSTNSRLRHCAYRCYATWRFGSQDMADFAILPSCCRWRIRKEFPKSEGQYSGFKSPY
As for B1, the binding result in assay [1] and in assay [2] was “binds” each time.
